# Some of the results follow.
# By UniProt entry, the sequences of proteins in these tests, tags left out. Where a name states a change or a piece, a line headed by the entry shows the natural chain unless it says otherwise.
# UniProt Q8WZA9: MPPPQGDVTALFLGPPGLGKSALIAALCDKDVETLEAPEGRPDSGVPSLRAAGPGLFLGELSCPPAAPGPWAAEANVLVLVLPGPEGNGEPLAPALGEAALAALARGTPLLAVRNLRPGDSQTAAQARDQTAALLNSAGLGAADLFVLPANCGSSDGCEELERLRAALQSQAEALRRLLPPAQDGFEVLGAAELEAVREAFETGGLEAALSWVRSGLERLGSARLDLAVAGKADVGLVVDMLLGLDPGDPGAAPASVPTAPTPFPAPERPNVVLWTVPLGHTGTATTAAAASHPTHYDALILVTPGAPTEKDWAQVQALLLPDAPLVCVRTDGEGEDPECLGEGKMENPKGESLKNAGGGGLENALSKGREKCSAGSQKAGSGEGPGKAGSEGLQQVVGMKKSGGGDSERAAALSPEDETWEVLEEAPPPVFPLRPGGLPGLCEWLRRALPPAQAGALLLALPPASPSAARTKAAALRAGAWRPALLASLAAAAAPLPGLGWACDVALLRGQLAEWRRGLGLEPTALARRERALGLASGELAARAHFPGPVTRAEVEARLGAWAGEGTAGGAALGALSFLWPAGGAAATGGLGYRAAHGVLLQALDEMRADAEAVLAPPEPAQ
# UniProt Q9H0C8: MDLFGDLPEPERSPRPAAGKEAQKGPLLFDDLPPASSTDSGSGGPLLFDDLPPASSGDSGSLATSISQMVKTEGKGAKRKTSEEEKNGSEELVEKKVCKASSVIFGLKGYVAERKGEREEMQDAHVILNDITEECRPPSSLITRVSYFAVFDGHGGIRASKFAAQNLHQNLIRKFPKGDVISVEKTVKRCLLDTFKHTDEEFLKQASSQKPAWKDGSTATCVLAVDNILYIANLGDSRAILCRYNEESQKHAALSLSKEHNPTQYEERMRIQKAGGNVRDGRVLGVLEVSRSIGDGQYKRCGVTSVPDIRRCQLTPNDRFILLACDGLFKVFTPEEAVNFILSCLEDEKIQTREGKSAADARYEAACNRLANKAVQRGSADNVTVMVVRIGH
# UniProt Q8TEX9: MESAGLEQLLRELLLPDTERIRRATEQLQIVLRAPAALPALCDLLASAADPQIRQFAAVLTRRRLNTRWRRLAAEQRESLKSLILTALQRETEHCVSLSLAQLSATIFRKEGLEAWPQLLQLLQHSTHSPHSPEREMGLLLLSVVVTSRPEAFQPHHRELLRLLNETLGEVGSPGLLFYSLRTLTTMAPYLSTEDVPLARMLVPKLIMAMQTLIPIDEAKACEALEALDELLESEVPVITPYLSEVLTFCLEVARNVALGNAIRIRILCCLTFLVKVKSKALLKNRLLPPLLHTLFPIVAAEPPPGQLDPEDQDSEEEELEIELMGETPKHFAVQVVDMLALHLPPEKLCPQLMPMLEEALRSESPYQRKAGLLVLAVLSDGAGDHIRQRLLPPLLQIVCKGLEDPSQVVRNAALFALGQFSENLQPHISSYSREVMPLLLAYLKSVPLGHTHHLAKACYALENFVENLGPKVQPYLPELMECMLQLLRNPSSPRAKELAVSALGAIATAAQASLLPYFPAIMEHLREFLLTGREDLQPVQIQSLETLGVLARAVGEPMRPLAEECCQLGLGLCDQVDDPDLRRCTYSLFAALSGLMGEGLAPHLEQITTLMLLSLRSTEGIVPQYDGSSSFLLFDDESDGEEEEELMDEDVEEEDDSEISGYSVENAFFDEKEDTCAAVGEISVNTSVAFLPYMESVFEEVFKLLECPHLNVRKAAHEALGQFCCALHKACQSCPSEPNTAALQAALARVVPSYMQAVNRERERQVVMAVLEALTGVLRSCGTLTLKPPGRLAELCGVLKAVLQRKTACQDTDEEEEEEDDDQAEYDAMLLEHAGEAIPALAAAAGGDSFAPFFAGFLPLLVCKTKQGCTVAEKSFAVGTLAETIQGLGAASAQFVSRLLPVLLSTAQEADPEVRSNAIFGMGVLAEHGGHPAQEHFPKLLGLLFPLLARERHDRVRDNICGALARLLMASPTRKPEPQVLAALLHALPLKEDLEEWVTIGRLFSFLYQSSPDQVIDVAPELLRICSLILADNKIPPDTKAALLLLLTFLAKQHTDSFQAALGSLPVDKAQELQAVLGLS
# UniProt Q96T52: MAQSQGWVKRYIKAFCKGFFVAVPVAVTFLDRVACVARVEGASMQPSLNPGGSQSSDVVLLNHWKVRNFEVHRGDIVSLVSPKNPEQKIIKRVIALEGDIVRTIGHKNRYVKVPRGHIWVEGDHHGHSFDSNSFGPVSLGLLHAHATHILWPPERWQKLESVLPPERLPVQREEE
# UniProt P22692: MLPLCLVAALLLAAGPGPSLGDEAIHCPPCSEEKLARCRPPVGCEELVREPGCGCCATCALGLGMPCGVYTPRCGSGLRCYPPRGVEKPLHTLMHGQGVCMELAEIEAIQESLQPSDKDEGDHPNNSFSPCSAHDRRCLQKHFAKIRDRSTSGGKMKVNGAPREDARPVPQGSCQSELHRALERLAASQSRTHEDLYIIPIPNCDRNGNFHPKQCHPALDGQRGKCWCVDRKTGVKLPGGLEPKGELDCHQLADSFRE
# UniProt Q96LU5: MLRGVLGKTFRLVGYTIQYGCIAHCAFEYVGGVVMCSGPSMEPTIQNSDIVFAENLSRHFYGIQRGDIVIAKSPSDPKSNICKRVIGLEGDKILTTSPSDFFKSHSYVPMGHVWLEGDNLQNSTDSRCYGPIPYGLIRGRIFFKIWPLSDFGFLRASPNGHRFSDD
# UniProt P51553: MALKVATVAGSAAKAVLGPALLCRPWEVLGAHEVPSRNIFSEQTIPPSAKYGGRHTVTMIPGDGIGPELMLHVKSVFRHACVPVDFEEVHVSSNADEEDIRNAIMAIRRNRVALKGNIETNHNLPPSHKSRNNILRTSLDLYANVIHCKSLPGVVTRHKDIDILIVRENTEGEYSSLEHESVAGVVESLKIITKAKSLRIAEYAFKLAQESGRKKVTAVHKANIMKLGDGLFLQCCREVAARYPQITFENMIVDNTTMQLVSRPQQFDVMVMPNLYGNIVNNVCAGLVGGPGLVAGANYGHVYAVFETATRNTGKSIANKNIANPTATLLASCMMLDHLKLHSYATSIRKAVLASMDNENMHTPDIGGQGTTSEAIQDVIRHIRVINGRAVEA
# UniProt P80217: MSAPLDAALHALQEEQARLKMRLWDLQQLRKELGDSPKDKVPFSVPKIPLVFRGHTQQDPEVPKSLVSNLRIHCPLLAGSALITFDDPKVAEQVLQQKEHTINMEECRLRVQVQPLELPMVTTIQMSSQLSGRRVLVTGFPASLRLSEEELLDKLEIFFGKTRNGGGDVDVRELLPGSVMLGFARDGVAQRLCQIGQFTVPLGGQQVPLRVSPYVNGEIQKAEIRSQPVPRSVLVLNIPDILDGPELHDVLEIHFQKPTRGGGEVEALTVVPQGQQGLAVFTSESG
# UniProt P51617, whole entry, looked up: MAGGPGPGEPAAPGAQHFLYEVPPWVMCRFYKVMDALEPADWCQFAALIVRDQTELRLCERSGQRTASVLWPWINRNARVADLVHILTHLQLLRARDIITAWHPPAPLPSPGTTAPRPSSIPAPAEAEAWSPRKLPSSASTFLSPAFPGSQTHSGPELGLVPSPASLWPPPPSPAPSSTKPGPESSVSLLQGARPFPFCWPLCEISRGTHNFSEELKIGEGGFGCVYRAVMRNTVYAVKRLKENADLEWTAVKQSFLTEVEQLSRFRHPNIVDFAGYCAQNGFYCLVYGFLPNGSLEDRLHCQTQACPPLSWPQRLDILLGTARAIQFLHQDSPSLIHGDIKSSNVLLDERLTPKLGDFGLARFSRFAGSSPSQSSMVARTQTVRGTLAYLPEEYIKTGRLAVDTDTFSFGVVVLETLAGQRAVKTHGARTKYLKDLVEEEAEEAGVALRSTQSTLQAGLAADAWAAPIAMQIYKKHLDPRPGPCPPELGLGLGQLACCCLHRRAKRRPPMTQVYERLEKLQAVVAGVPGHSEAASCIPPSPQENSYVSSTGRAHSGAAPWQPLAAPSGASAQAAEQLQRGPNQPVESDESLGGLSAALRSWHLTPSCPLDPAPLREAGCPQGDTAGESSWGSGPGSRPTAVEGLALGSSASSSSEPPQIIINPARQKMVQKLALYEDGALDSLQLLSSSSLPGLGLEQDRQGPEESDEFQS
# UniProt Q14653: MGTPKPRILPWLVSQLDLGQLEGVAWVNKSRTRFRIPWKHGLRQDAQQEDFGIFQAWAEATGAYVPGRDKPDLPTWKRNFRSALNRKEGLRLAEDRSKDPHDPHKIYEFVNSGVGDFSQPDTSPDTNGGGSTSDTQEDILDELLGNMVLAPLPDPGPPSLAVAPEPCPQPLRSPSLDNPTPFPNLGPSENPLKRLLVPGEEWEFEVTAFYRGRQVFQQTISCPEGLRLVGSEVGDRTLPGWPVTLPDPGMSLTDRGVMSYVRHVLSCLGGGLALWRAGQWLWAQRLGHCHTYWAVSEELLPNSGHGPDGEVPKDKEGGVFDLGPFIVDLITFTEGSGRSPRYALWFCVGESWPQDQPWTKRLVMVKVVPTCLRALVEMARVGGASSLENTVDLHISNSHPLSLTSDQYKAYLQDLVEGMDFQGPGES
# UniProt Q70UQ0: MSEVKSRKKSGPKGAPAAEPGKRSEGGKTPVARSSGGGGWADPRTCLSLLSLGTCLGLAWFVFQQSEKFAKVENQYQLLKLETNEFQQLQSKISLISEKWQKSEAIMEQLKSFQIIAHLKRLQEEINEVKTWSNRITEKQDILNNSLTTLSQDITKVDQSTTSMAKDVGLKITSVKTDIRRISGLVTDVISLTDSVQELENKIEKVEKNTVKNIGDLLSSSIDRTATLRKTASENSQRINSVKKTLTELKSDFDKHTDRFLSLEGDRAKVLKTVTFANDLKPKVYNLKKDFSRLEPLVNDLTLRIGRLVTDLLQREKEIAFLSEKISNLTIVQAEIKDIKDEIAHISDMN
# UniProt P14316: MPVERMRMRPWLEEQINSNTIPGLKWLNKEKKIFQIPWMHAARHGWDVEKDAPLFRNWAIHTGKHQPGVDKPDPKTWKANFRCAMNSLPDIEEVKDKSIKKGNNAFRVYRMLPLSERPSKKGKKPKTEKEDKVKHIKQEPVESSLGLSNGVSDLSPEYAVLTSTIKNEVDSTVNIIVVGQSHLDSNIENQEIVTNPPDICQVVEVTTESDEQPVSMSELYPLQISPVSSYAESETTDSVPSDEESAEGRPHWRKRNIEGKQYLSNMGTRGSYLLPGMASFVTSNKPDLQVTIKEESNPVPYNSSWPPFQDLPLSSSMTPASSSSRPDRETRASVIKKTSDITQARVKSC
# Compound: C1=CC=C(C=C1)[C@H](COC2=CC3=C(C=C2)NC(=O)N3)NC(=O)C4=CC=CN(C4=O)CC5=CC(=C(C=C5)F)F
# Experiment: log2 fold change, soluble protein after heating vs DMSO (PISA); higher = thermal stabilisation; K562 cells, 10 uM, 30 min; active = over 0.2 and 3.5 SD of the protein, either way, in both replicates (recomputed)
# Method in brief: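 Soluble protein was defined as the supernatant after 21,000xg for 90 min. It came from K562 cells at 2×10^6 cells/mL given 10 μM compound for 30 min, heated in aliquots for 3 min across 48°C-58°C, pooled, and extracted in PBS with 0.5% NP-40 at 4°C, and was quantified by TMTpro 16plex LC-MS/MS with equalised channel sums. Thermal stability against control samples, from duplicates, is reported as log2 fold change.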
row,Target,log2 fold change
1,IRGQ (UniProt Q8WZA9),inactive: -0.053
2,ILKAP (UniProt Q9H0C8),inactive: -0.071
3,IPO4 isoform 2 (UniProt Q8TEX9),inactive: -0.036
4,IMMP2L (UniProt Q96T52),inactive: 0.035
5,IGFBP4 (UniProt P22692),inactive: -0.019
6,IMMP1L (UniProt Q96LU5),inactive: 0.054
7,IDH3G (UniProt P51553),inactive: -0.014
8,IPO9 (UniProt Q96P70),inactive: 0.018
9,IREB2 (UniProt P48200),inactive: -0.021
10,IFI35 isoform 2 (UniProt P80217),inactive: 0.018
11,IRAK1 (UniProt P51617),inactive: -0.189
12,IRF3 (UniProt Q14653),inactive: -0.049
13,IKBIP isoform 4 (UniProt Q70UQ0),inactive: 0.039
14,IRF2 (UniProt P14316),inactive: -0.046

# From entry 4 up to 5, copied from above:
row,Target,log2 fold change
4,IMMP2L (UniProt Q96T52),inactive: 0.035
5,IGFBP4 (UniProt P22692),inactive: -0.019

# From the supplement of paper PMC10849652
